According to paper PMC3711072:
Results are given in words; binding and its absence hold for the method and conditions named. Some entries that bind do so weakly or less than the wild type.

Protein sequences, listed by entry. Tags and fused reporters are not part of them.
UniProt P51677: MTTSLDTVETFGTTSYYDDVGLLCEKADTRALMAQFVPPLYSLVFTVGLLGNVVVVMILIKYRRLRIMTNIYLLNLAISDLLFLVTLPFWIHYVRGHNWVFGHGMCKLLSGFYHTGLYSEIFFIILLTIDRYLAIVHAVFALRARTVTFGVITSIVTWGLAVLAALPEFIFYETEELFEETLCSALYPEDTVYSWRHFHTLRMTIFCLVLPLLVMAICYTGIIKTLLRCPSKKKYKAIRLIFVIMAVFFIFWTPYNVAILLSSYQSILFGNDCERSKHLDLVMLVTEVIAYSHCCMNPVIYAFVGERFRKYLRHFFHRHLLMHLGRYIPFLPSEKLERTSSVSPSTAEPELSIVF

T1: CC chemokine ligand 18 (CCL18) (human), P55774
T1 chain: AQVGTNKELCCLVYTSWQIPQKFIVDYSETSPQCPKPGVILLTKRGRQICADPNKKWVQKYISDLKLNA

B1: Radiolabeled CCL18 (125I-CCL18) (ligand, UniProt P55774 21-89)
chain: T1 chain
modifications: 125I label (radiolabeled; residue not stated)
B2: CC chemokine ligand 18 (CCL18), P55774 21-89 (ligand)
chain: T1 chain

How the values were obtained:
CCR3 = CCR3 (UniProt P51677); test: radioligand binding; equilibrium competition binding of 125I-CCL18 on L1.2/CCR3 transfectants, increasing concentration of unlabelled competitor; only the binder purified
[1] = target: T1, CC chemokine ligand 18 (CCL18) (human), …; test: SEC; 500 ug CCL18 and an equimolar amount of Evasin incubated 45 min at RT in PBS, Superdex 75 in PBS, 1.5 ml/min, calibrated column; fractions on silver stained SDS-PAGE; CCL18 and Evasins also run alone; both purified; settings: remark: other sources report otherwise

Binder | binding (CCR3) | binding [1]
B1 | binds | –
B2 | – | no binding
